Structures can show the parent of a compound that is named as a salt. The list shows a part of the results. The calls rarely recur for the same compound in another form.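 In K562 cells expressing nanoluciferase-fused kinases, luminescence was recorded at 4 h intervals between 2 and 18 h, normalized as percent of control with DMSO at 100% and a positive control at 0%. A significant (2 sigma) signal drop marks a time point as decreased. The authors' rule for a hit is not shown and takes in more than the number of time points.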

Chains of the proteins cited; added tags and fusions are not shown. Lines headed by an entry give the natural chain unless they say otherwise; changes in a name come on top.
UniProt O75460: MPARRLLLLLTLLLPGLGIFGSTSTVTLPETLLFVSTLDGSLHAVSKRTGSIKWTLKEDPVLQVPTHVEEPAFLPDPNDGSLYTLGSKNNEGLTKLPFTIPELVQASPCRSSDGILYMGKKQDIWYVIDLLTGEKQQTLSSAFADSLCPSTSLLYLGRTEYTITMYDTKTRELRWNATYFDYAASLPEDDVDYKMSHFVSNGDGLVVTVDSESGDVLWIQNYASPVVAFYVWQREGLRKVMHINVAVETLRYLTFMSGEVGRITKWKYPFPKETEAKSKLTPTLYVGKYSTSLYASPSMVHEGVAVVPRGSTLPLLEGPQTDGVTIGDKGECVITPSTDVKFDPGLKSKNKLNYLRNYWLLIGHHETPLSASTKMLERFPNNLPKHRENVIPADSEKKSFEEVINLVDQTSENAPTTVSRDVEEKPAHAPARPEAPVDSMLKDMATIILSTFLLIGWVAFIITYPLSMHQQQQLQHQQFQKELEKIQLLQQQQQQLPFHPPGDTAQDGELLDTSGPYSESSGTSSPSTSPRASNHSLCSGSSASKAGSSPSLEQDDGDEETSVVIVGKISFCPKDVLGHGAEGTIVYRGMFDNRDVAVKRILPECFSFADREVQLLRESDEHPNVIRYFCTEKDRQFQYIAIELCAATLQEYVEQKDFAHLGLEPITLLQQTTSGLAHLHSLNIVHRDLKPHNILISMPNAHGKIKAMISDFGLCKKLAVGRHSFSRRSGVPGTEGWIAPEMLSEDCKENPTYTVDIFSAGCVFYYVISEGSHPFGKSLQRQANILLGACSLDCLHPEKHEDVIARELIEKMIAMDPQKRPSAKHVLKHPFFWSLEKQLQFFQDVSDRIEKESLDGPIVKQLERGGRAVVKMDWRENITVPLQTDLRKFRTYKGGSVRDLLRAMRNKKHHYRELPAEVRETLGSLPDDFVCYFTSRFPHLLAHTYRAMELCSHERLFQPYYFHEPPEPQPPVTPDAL
UniProt P21802, whole entry, looked up: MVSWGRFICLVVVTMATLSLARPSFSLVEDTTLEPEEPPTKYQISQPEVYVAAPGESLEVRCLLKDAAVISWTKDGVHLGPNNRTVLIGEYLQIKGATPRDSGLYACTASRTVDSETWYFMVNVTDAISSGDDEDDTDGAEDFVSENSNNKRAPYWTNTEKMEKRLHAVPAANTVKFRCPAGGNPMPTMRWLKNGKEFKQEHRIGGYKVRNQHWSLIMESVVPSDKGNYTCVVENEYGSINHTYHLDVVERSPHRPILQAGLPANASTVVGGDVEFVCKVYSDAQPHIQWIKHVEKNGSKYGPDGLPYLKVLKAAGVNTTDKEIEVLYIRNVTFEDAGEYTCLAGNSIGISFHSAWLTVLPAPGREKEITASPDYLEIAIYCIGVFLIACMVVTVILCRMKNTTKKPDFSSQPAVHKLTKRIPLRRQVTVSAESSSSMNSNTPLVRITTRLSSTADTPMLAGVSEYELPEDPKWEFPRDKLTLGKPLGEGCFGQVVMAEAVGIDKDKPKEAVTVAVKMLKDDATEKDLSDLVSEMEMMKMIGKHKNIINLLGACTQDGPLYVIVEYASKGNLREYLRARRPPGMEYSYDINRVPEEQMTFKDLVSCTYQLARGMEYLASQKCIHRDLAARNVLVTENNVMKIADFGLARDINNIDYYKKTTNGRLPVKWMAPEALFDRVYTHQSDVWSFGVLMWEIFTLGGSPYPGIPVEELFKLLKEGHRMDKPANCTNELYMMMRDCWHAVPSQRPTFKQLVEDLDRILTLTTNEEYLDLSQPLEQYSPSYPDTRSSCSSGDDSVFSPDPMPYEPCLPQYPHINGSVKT
UniProt P22607, whole entry, looked up: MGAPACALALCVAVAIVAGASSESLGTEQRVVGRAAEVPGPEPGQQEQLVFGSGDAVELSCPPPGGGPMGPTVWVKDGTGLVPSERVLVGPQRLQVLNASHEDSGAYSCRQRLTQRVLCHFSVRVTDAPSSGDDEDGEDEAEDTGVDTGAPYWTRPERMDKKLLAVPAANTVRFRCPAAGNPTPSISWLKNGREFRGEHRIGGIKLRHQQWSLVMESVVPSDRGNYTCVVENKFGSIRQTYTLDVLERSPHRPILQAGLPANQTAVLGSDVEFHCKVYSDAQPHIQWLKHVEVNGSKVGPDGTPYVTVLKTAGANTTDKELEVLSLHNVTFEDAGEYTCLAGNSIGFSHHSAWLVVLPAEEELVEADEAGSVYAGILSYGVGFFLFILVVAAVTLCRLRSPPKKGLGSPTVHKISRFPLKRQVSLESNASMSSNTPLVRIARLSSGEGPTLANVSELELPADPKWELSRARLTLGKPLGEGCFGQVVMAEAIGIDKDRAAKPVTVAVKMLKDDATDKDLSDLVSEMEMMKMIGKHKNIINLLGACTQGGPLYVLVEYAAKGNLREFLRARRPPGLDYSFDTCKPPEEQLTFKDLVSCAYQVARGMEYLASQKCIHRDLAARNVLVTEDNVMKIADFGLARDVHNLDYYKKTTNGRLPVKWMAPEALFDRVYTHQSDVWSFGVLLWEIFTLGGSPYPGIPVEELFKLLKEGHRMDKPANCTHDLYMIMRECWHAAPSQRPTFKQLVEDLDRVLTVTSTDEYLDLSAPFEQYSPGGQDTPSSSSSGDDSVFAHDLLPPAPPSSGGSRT
UniProt P36888, whole entry: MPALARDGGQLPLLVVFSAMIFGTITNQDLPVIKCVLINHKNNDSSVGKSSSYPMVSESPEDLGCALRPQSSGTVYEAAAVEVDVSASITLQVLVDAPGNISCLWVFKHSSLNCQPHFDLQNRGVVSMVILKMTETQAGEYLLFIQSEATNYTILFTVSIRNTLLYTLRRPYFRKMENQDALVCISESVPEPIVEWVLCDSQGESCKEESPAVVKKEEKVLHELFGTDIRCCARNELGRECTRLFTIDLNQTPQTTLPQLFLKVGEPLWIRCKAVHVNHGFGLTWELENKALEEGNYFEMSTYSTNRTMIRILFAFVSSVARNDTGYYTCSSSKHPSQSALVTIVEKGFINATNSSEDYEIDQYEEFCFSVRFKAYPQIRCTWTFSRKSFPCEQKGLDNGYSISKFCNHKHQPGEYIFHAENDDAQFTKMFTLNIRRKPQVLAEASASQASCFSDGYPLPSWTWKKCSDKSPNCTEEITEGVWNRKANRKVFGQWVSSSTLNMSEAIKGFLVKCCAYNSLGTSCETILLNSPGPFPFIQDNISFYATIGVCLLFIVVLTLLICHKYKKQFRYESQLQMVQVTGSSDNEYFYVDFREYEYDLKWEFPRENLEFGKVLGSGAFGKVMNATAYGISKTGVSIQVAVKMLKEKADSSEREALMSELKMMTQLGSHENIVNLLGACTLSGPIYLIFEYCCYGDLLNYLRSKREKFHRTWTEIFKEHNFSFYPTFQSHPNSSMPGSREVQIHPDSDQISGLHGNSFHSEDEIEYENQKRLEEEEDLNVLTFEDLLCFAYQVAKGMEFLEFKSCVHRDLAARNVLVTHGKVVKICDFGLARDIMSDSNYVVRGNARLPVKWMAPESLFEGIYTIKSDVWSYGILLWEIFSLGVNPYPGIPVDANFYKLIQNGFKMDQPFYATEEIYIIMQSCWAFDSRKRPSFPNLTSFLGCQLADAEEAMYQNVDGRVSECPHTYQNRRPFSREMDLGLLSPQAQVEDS
UniProt P06241, whole entry, looked up: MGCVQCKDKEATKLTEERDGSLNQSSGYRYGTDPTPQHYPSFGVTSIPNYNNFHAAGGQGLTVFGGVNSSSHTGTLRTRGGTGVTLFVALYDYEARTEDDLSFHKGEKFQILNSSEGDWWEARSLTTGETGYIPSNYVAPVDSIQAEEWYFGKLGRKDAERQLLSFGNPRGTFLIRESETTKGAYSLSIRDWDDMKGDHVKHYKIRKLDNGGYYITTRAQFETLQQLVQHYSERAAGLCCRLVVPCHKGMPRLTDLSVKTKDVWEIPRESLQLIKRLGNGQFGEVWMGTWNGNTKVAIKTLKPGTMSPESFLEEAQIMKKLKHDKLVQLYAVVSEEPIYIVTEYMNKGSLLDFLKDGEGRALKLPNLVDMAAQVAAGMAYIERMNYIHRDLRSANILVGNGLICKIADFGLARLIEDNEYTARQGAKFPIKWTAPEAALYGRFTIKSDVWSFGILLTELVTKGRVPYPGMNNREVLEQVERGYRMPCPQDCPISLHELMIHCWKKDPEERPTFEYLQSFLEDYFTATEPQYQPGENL
UniProt P49840: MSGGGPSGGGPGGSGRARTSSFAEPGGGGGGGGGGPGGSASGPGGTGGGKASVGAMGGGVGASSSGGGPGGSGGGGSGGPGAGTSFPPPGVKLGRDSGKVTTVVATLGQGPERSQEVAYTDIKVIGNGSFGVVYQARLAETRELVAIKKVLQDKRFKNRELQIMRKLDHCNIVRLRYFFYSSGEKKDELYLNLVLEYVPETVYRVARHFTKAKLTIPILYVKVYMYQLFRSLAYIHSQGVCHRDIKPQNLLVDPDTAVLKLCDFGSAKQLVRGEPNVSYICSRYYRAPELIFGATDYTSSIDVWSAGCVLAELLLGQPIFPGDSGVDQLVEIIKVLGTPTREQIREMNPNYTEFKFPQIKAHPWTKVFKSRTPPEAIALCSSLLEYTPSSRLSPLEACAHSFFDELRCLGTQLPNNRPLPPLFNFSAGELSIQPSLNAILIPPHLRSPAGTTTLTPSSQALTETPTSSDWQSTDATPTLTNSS
UniProt P14616: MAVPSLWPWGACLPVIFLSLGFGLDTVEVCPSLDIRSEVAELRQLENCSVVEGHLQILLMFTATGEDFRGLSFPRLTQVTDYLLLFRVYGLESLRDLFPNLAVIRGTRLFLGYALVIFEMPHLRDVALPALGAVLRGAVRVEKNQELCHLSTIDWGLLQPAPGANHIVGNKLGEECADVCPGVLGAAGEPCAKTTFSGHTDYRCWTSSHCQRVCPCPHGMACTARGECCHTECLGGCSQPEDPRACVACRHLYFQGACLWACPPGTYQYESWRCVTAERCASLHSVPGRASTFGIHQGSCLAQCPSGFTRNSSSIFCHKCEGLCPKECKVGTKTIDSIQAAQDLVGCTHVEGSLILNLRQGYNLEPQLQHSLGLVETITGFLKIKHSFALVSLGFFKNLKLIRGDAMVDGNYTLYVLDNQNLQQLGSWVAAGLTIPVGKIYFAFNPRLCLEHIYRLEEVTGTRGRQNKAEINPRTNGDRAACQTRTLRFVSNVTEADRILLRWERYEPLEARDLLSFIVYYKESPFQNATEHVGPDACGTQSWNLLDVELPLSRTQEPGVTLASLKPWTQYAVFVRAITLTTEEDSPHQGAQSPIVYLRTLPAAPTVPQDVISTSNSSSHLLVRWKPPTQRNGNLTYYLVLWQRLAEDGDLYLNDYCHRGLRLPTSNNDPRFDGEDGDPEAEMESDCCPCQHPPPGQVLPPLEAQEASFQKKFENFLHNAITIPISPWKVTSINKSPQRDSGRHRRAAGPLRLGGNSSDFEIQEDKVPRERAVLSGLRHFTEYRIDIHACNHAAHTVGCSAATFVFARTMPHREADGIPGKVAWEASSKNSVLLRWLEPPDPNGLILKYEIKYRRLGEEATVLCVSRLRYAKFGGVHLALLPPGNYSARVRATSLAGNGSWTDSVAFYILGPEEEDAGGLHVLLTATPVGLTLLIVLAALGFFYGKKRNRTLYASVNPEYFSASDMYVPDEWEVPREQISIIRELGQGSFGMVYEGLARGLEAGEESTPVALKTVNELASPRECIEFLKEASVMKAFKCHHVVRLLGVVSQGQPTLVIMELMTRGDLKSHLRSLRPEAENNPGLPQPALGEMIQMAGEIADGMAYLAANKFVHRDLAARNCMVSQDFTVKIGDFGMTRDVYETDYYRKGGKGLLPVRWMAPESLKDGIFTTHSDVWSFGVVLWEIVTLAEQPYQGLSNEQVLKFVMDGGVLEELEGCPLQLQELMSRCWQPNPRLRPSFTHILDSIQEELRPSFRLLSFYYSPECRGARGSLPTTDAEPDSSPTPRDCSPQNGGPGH

Here are results for 18 compounds from the supplement of paper PMC12823440, “Inhibitors supercharge kinase turnover through native proteolytic circuits” (Nature, 2025).

Targets include ERN1 (UniProt O75460); FGFR1 (UniProt P11362); FGFR2 (UniProt P21802); FGFR3 (UniProt P22607); FLT3 (UniProt P36888); FYN (UniProt P06241); GSK3A (UniProt P49840); HER2 (UniProt P04626); INSRR (UniProt P14616); FGR (UniProt P09769).
What all share (experiment): kinase-Nluc reporter destabilization hit call (1 = scored as downregulated) (binary); higher = compound decreases kinase abundance
Holding throughout (conditions): K562, 2-18 h

`Cn1cc(/C=C2\C(=O)Nc3cccnc32)c2ccccc21`: the “kinase-Nluc reporter destabilization hit call” value with ERN1 (10 µM), in the assay with FGFR1 (10 µM), in the assay with FGFR2 (10 µM), in the assay with FGFR3 (10 µM), with FLT3 (10 µM) and in the assay with FYN (10 µM) was inactive: 0 in each case. The “kinase-Nluc reporter destabilization hit call” value in the assay with GSK3A (10 µM), in the assay with HER2 (10 µM) and in the assay with INSRR (10 µM) was inactive: 0 in each case.

As for `Cc1cnc(Nc2ccc(OCCN3CCCC3)cc2)nc1Nc1cccc(S(=O)(=O)NC(C)(C)C)c1` [Fedratinib (hydrochloride hydrate)], the “kinase-Nluc reporter destabilization hit call” value in the assay with ERN1 (2.5 µM), with FGFR1 (2.5 µM), with FGFR2 (2.5 µM), with FGFR3 (2.5 µM), with FGR (2.5 µM) and in the assay with FLT3 (2.5 µM) was inactive: 0 each time. Besides, the “kinase-Nluc reporter destabilization hit call” value in the assay with GSK3A (2.5 µM), with HER2 (2.5 µM) and with INSRR (2.5 µM) was inactive: 0 throughout.

With `COc1ccc(CNC(=O)Nc2ncc([N+](=O)[O-])s2)cc1`, the “kinase-Nluc reporter destabilization hit call” value with ERN1 (2.5 µM), with FGFR1 (2.5 µM), in the assay with FGFR2 (2.5 µM), with FGFR3 (2.5 µM), with FGR (2.5 µM) and with FLT3 (2.5 µM) was inactive: 0 throughout. Further, the “kinase-Nluc reporter destabilization hit call” value with FYN (2.5 µM), with GSK3A (2.5 µM), with HER2 (2.5 µM) and in the assay with INSRR (2.5 µM) was inactive: 0 in each case.

In the case of `C=CC(=O)N1CCC([C@@H]2CCNc3c(C(N)=O)c(-c4ccc(Oc5ccccc5)cc4)nn32)CC1` [Zanubrutinib], the “kinase-Nluc reporter destabilization hit call” value in the assay with ERN1 (10 µM), in the assay with FGFR1 (10 µM), in the assay with FGFR2 (10 µM), with FGFR3 (10 µM), with FGR (10 µM) and with FLT3 (10 µM) was inactive: 0 in each case. Besides, the “kinase-Nluc reporter destabilization hit call” value in the assay with FYN (10 µM), with GSK3A (10 µM), with HER2 (10 µM) and with INSRR (10 µM) was inactive: 0 throughout.

`Fc1ccc(-c2nc(-c3ccc4ccccc4c3F)[nH]c2-c2ccncc2)cc1`: the “kinase-Nluc reporter destabilization hit call” value in the assay with ERN1 (10 µM), in the assay with FGFR1 (10 µM), with FGFR3 (10 µM), with FGR (10 µM), with FLT3 (10 µM) and with FYN (10 µM) was inactive: 0 in each case. For the same compound, the “kinase-Nluc reporter destabilization hit call” value with GSK3A (10 µM) is inactive: 0; with HER2 (10 µM) it was active: 1; in the assay with INSRR (10 µM) it was inactive: 0.

As to `Cc1nc(Nc2ncc(C(=O)Nc3c(C)cccc3Cl)s2)cc(N2CCN(CCO)CC2)n1` [Dasatinib], the “kinase-Nluc reporter destabilization hit call” value with ERN1 (2.5 µM), with FGFR2 (2.5 µM), with FGFR3 (2.5 µM), with FGR (2.5 µM), with FYN (2.5 µM) and with GSK3A (2.5 µM) was inactive: 0 each time. Also, the “kinase-Nluc reporter destabilization hit call” value with HER2 (2.5 µM) and in the assay with INSRR (2.5 µM) was inactive: 0 throughout.

Turning to `CN1CCN(c2ccc3nc(-c4c(N)c5c(F)cccc5[nH]c4=O)[nH]c3c2)CC1` [Dovitinib (lactate)], the “kinase-Nluc reporter destabilization hit call” value in the assay with ERN1 (2.5 µM), with FGR (2.5 µM), with FYN (2.5 µM), with GSK3A (2.5 µM), with HER2 (2.5 µM) and with INSRR (2.5 µM) was inactive: 0 each time.

As to `O=C1Cc2c([nH]c3ccc(Br)cc23)-c2ccccc2N1` [Kenpaullone], the “kinase-Nluc reporter destabilization hit call” value with ERN1 (10 µM), with FGFR1 (10 µM), with FGFR2 (10 µM), in the assay with FGFR3 (10 µM), with FGR (10 µM) and in the assay with FLT3 (10 µM) was inactive: 0 each time. In addition, the “kinase-Nluc reporter destabilization hit call” value with FYN (10 µM), with GSK3A (10 µM), with HER2 (10 µM) and with INSRR (10 µM) was inactive: 0 each time.

In the case of `CN1CCN(c2ccc3nc(-c4c(N)c5c(F)cccc5[nH]c4=O)[nH]c3c2)CC1` [Dovitinib], the “kinase-Nluc reporter destabilization hit call” value with ERN1 (2.5 µM), with FGR (2.5 µM), with FYN (2.5 µM), with GSK3A (2.5 µM), with HER2 (2.5 µM) and with INSRR (2.5 µM) was inactive: 0 in each case.

Take `C=CC(=O)Nc1cc2c(Nc3ccc(F)c(Cl)c3)ncnc2cc1OCCCN1CCOCC1` [Canertinib (dihydrochloride)]: the “kinase-Nluc reporter destabilization hit call” value in the assay with ERN1 (2.5 µM), with FGFR1 (2.5 µM), in the assay with FGFR2 (2.5 µM), in the assay with FGFR3 (2.5 µM), with FGR (2.5 µM) and in the assay with FLT3 (2.5 µM) was inactive: 0 throughout. Further, the “kinase-Nluc reporter destabilization hit call” value with FYN (2.5 µM), in the assay with GSK3A (2.5 µM) and with INSRR (2.5 µM) was inactive: 0 in each case.

In the case of `C=CC(=O)Nc1cc2c(Nc3ccc(F)c(Cl)c3)ncnc2cc1OCCCN1CCOCC1` [Canertinib], the “kinase-Nluc reporter destabilization hit call” value in the assay with ERN1 (10 µM), with FGFR1 (10 µM), with FGFR2 (10 µM), with FGFR3 (10 µM), with FGR (10 µM) and with FLT3 (10 µM) was inactive: 0 in each case. The “kinase-Nluc reporter destabilization hit call” value with FYN (10 µM), with GSK3A (10 µM) and with INSRR (10 µM) was inactive: 0 in each case.

As to `COc1cc2/c(=N/c3ccc(Br)cc3F)nc[nH]c2cc1OCC1CCN(C)CC1` [Vandetanib], the “kinase-Nluc reporter destabilization hit call” value with ERN1 (2.5 µM), with FGFR2 (2.5 µM), with FGR (2.5 µM), with FLT3 (2.5 µM), in the assay with FYN (2.5 µM) and with GSK3A (2.5 µM) was inactive: 0 in each case. Moreover, the “kinase-Nluc reporter destabilization hit call” value with HER2 (2.5 µM) and in the assay with INSRR (2.5 µM) was inactive: 0 throughout.

On to `CCCCCCCCCCCCc1ccc(S(=O)(=O)Nc2nncs2)cc1`, for which the “kinase-Nluc reporter destabilization hit call” value with ERN1 (10 µM), with FGFR1 (10 µM), in the assay with FGFR2 (10 µM), in the assay with FGFR3 (10 µM), with FGR (10 µM) and in the assay with FLT3 (10 µM) was inactive: 0 throughout. Besides, the “kinase-Nluc reporter destabilization hit call” value with FYN (10 µM), with GSK3A (10 µM), in the assay with HER2 (10 µM) and with INSRR (10 µM) was inactive: 0 in each case.

In the case of `CC1(C)CNc2cc(NC(=O)c3cccnc3NCc3ccncc3)ccc21` [Motesanib (Diphosphate)], the “kinase-Nluc reporter destabilization hit call” value with ERN1 (2.5 µM) was inactive: 0; with FGFR2 (2.5 µM), inactive: 0; in the assay with FGFR3 (2.5 µM), inactive: 0; with FGR (2.5 µM), inactive: 0; in the assay with FLT3 (2.5 µM) it was inactive: 0; in the assay with FYN (2.5 µM) it was active: 1. The “kinase-Nluc reporter destabilization hit call” value in the assay with GSK3A (2.5 µM), with HER2 (2.5 µM) and with INSRR (2.5 µM) was inactive: 0 each time.

Take `O=c1ncn2nc(Sc3ccc(F)cc3F)ccc2c1-c1c(Cl)cccc1Cl` [Neflamapimod]: the “kinase-Nluc reporter destabilization hit call” value with ERN1 (10 µM), in the assay with FGFR1 (10 µM), with FGFR2 (10 µM), with FGFR3 (10 µM), with FGR (10 µM) and in the assay with FLT3 (10 µM) was inactive: 0 in each case. The “kinase-Nluc reporter destabilization hit call” value in the assay with FYN (10 µM), with GSK3A (10 µM), with HER2 (10 µM) and in the assay with INSRR (10 µM) was inactive: 0 throughout.

Consider `C[C@@]1(C(=O)Nc2ccc(F)nc2)CCCN1c1nc(Nc2cc(C3CC3)n[nH]2)c2cccn2n1`, for which the “kinase-Nluc reporter destabilization hit call” value with ERN1 (10 µM), with FGR (10 µM), with FYN (10 µM), with GSK3A (10 µM), in the assay with HER2 (10 µM) and with INSRR (10 µM) was inactive: 0 each time.

For `N#CC(=Cc1cc(Cl)cc(Cl)c1)c1cccnc1`, the “kinase-Nluc reporter destabilization hit call” value in the assay with FGFR1 (10 µM), with FGFR2 (10 µM), with FGFR3 (10 µM), with GSK3A (10 µM) and with HER2 (10 µM) was inactive: 0 in each case.

`CC(=O)c1c(C)c2cnc(Nc3ccc(N4CCN(C(=O)CCCCCC(=O)N[C@H](C(=O)N5C[C@H](O)C[C@H]5C(=O)NCc5ccc(-c6scnc6C)cc5)C(C)(C)C)CC4)cn3)nc2n(C2CCCC2)c1=O`: the “kinase-Nluc reporter destabilization hit call” value with ERN1 (2.5 µM), with FGR (2.5 µM), in the assay with FLT3 (2.5 µM), in the assay with GSK3A (2.5 µM), with HER2 (2.5 µM) and with INSRR (2.5 µM) was inactive: 0 in each case.
